Test results reported in patent US8168628B2, “Conjugated psychotropic drugs and uses thereof” (Ramot at Tel-Aviv University Ltd., priority 2001, dated 2012).

How the values were obtained:
[1] = system: normal and transformed cells; experiment: Proliferation tests, summary over the tested cell lines; format: cell-based; settings: read-out: IC50 range, anti-proliferative activity
Protocol: (§1) Proliferation of cancer and normal cells: Proliferation was measured by neutral red assay or by a fluorometric assay quantitating DNA content. In the neutral red assay, the neutral red is absorbed by lysosomes, thus causing coloring of living cells. Quantitative analysis is performed by colorimetric assay (ELISA reader at 550 nm). In the fluorometric assay, alamar blue is used as a redox indicator. Alamar blue fluorescence was measured at an excitation wavelength of 544 nm and an emission wavelength of […] (FLUOstar BMG Lab Technologies, Offenburg, Germany).
(§2) The cells were sub-cultured and the tested compounds were added thereto in increasing concentrations. The IC50 values were determined by linear regression of the survival percentage of the cells.

HT-29 = experiment: Proliferation test, HT-29 cells; format: cell-based; settings: Homo sapiens, linear regression of survival percentage
Protocol: (§3) Cell lines: Human prostate carcinoma (PC-3), human colon carcinoma (HT-29), murine melanoma (B-16) and its drug resistant subclone (B-16 MDR), mouse fibroblasts (3T3), myeloid leukemia (HL 60) and its drug resistant subclone (HL 60 MX2), endometrium cell line (MES SA) and its drug resistant subclone (MES DX5), jurkat T lymphoma and monocyte leukemia (U-937), were used in this study.
as §1, §2

B16 MDR = experiment: Proliferation test, B16 MDR cells; format: cell-based, murine; settings: Mus musculus; linear regression of survival percentage
Protocol: as §3, §1, §2

Normal rat fibroblasts = experiment: Proliferation test, normal rat fibroblasts; format: cell-based; settings: Fibroblast, linear regression of survival percentage
Protocol: The primary cultures of rat fibroblasts were obtained from neonatal rats using known procedures.
as §1, §2

B16 = experiment: Proliferation test, B16 melanoma cells; format: cell-based, murine; settings: Mus musculus, linear regression of survival percentage
Protocol: as §3, §1, §2

Measured: IC50

NCCCC(=O)O [GABA, γ-aminobutyric acid, reference compound]
> 20 mM: all assays above
